# Literature values as cited in patent publication US20090028873A1, “SUBSTITUTED CYCLOHEXANOLS” (AUSPEX PHARMACEUTICALS, INC., priority 2007, published 2009).
# Tested on: norepinephrine uptake
# Conditions: result in words; cited from earlier work
structure (smiles),measurement,value
"COc1cccc(C2(O)CCCCC2CN(C)C)c1 (single isomer, unassigned; (-)) [(−)-tramadol]",inhibitor of norepinephrine uptake,most potent inhibitor
